The list shows a part of the results. Shown are side measurements of this screen, not its main read-out; they come without a call. Most of these compounds were active or inconclusive in the main read-out, so they are no random draw. Words in brackets tell the shape of the fitted curve; partial curves, single points and poor fits give uncertain potencies.
Test: qHTS Assay for Lipid Storage Modulators in Drosophila S3 Cells;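 as to cell number change: cells counted by Cell Tracker Red CMTPX staining in the red channel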
Conditions: BODIPY lipid droplet fluorescence, 18-24 h; for cell number change: measured here: cell count max response, cells fed with added oleic acid
Summary of the method: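 Drosophila S3 cells loaded with oleic acid (400 uM, as added) and compounds at several concentrations; lipid droplets imaged by 488-nm laser-scanning cytometry, 500–530 nm intensity and object ratio to cell channel. Percent activity normalized to 20 uM Triacsin C.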

[1] = measured here: lipid fluorescence (Fed channel) AC50, cells fed with added oleic acid
[2] = measured here: cell number channel AC50, cells fed with added oleic acid

SMILES	cell number change [%]	AC50 [1]	AC50 [2]
Cc1ccc2nc(Cn3cc(C(F)(F)F)ccc3=O)cc(=O)n2c1	4.44		
CCN(CC)S(=O)(=O)c1cccc(NC(=O)COC(=O)C2COc3ccccc3O2)c1 (stereo not drawn)	-3.73	6.51 µM [falling, single point]	
Cc1ccc(NC(=O)/C(=C\c2cccc([N+](=O)[O-])c2)NC(=O)c2cccs2)cc1	15.5	20.6 µM [falling, single point]	
COc1cc(OC)c(NC(=O)CCc2ccccc2)cc1Cl		6.51 µM [rising, single point]	
O=C(/C=C/c1ccc[nH]1)c1ccc(F)cc1	1.59	29.1 µM [falling, single point]	
COc1ccccc1NC(=O)CCc1nc2sc3c(c2c(=O)[nH]1)CCCC3	74.4		20.6 µM [rising, partial curve]
N#C/C(=C\c1ccccc1)C(=O)OCC(=O)N1CCCC1	-20.2	6.51 µM [falling, single point]	1.46 µM [falling, partial curve, poor fit]
CCN(CC)C(=O)c1cn(CC)c(=O)c2cc(OC)c(OC)cc12			1.46 µM [falling, partial curve]
Cc1c(OC(C)C(=O)N2C[C@H]3C[C@@H](C2)c2cccc(=O)n2C3)ccc2c3c(c(=O)oc12)CCCC3 (stereo partly drawn)	3.24		
COc1cccc(-c2nc(CS(=O)(=O)CC(=O)NCc3ccc4c(c3)OCO4)c(C)o2)c1	5.81	32.6 µM [falling, partial curve, poor fit]	
CN(C)C1(CNC(=O)C2CCN(S(=O)(=O)c3ccccc3C(F)(F)F)CC2)CCCCC1	-7.78		
CCN(CC)CCCN(C(=O)c1ccc(Br)cc1)c1nc(-c2ccc(OC)cc2)cs1	-17.4	32.6 µM [falling, partial curve]	
C=CCc1cc(Cl)ccc1OCCOCCNC(C)(C)C	-52.8	29.1 µM [falling, single point]	29.1 µM [falling, single point]
COc1cc2c(cc1OC)C(c1cccc(OC)c1OC)CC(=O)N2 (stereo not drawn)	-32.7	7.31 µM [rising, full curve, poor fit]	0.366 µM [falling, full curve, poor fit]
C/C=C/C=C/C(=O)OCC(=O)Nc1ccc(Cl)cc1	-5.56	6.51 µM [rising, single point]	6.51 µM [rising, single point]
O=[N+]([O-])c1ccc(/C=C/C2=NN(c3ccccc3)C(c3ccco3)C2)cc1 (stereo not drawn)	-99.7	0.0259 µM [falling, full curve]	1.16 µM [falling, full curve]
COc1ccc(C2CC(C(F)(F)F)n3nc(C(=O)NCc4c(C)nn(C)c4C)c(Cl)c3N2)cc1 (stereo not drawn)	-34.4		18.4 µM [falling, partial curve, poor fit]
COc1ccc(/C(C)=N/OCC(=O)N=Nc2c(O)[nH]c3ccc(Br)cc23)cc1	683		29.1 µM [rising, partial curve]

Record cards, from the list above:
CCN(CC)CCCN(C(=O)c1ccc(Br)cc1)c1nc(-c2ccc(OC)cc2)cs1 as listed: cell number change [%]: -17.4; AC50 [1]: 32.6 µM [falling, partial curve]
O=[N+]([O-])c1ccc(/C=C/C2=NN(c3ccccc3)C(c3ccco3)C2)cc1 (stereo not drawn) as listed: cell number change [%]: -99.7; AC50 [1]: 0.0259 µM [falling, full curve]; AC50 [2]: 1.16 µM [falling, full curve]

More results:

SMILES	cell number change [%]	AC50 [1]	AC50 [2]
Cn1c(=O)c2ccccc2n(CC(=O)N2CCCc3ccccc32)c1=O	-0.833	0.731 µM [rising, partial curve, poor fit]	
O=C(COC(=O)c1ccc(N2CCOCC2)c([N+](=O)[O-])c1)Nc1ccc2c(c1)OCO2	-26.5	0.164 µM [rising, full curve, poor fit]	
COc1cc(C2C3=C(CC(C)(C)CC3=O)N(C)C(=O)N2C)cc(OC)c1OC (stereo not drawn)	-0.407		
O=C(O)Cc1cc2c(s1)CCCCC2	5.85	16.4 µM [falling, partial curve]	
CSc1nc2ccc(NS(=O)(=O)c3ccc(Cl)s3)cc2s1	-41.6	32.6 µM [falling, single point]	29.1 µM [falling, single point]
O=C(NC1CCSc2ccccc21)c1cccc(Br)c1 (stereo not drawn)		29.1 µM [falling, single point]	
Cc1cc(C(=O)CSc2nc(N)cc(=O)[nH]2)c(C)n1Cc1ccco1	-7.29	18.4 µM [falling, single point]	
O=C(NC(=S)N1CCCCCC1)c1ccc(Cl)cc1Cl	8.08	0.461 µM [rising, full curve, poor fit]	
COc1ccccc1-n1cc(-c2ccccc2)c2c(=S)nc[nH]c21		0.58 µM [falling, single point]	
CC1CN(C(=O)c2cccc(S(=O)(=O)Nc3ccc(Cl)cc3)c2)CC(C)O1 (stereo not drawn)	36.5	29.1 µM [rising, single point]	14.6 µM [rising, single point]
CCN(CC)c1ccc(-c2sc(Nc3ccccc3)n[n+]2-c2ccc(F)cc2)cc1	14.6	29.1 µM [falling, partial curve, poor fit]	
CN(CCOc1ccccc1)C(=O)c1cc(-c2ccco2)nc2ccccc12	-1.65	0.517 µM [rising, full curve]	
O=C(Nc1nc(-c2ccccc2)cs1)C1CCCN(S(=O)(=O)c2ccccc2)C1 (stereo not drawn)	-87.1	20.6 µM [falling, partial curve]	18.4 µM [falling, partial curve]
O=C1CCN(c2ncccc2[N+](=O)[O-])CC1	27	29.1 µM [rising, single point]	0.291 µM [falling, full curve]
NC(=O)c1nsc(C(=O)N(c2ccccc2)C(C(=O)NC2CCCC2)c2cccs2)c1N (stereo not drawn)		6.51 µM [falling, single point]	
CCCCCCCCCCCC(=O)N/N=C/c1ccco1	-45.8	29.1 µM [falling, single point]	3.66 µM [falling, full curve]
Cc1cc(N2CCN(c3cccc(C(F)(F)F)c3)CC2)n2nc(C)nc2n1	-2.37	2.59 µM [rising, full curve]	
Cc1ccc2c(c1)C1CN(C)CCC1N2S(=O)(=O)c1cccc(C(F)(F)F)c1 (stereo not drawn)	19.5	32.6 µM [rising, partial curve, poor fit]	
